Reference: patent US20040029777A1, “Pharmaceutical preparation for taste masking” (TAISHO PHARMACEUTICAL CO., LTD., priority 2002, published 2004)

Assay: Sensory taste test of bitterness, panel of four members
Design: key: A: No bitter taste.; B: Almost no bitter taste.; C: Slightly bitter taste.; D: Bitterness taste.; E: Strong bitter taste
Conditions: kept in the mouth about 20 seconds

Ibuprofen-lysine Salt [Ibuprofen-lysine salt complex]
E: degree of bitterness, Panelist 1 | degree of bitterness, Panelist 2 | degree of bitterness, Panelist 3 | degree of bitterness, Panelist 4
